Data as given in PubChem BioAssay AID1224828 (NIAID, 2016)

Screen: 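Find genes required for NF-kappaB p65 moving into the nucleus after LPS in mouse macrophages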 (primary screen)
Cells: mouse RAW264.7 G9 macrophage reporter cells (GFP-p65, Tnf promoter-mCherry)
Reagent: siRNA pool against mouse genes, 100 nM
Duration: 2 days siRNA transfection, then 40 min LPS before fixation
Conditions: LPS (Salmonella minnesota R595) at 10 ng/ml
Measured: 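Microscopy ratio of nuclear to perinuclear-ring GFP-p65 signal, scaled to the plate median; gene score is the average of two replicate robust z-scores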
Reading the numbers: p65 translocation robust z-score: higher = more nuclear NF-kappaB p65 after LPS than the plate median; nuclear/cytoplasmic p65 ratio: higher = more nuclear NF-kappaB p65
Active means: 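Active if robust z is above 3.3 (negative regulators) or below -1.56, the Tlr4 control median (positive regulators); activity score 50 or more; control wells not called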
Calls: active = hit (p65 shift raised or lowered); inactive = no clear change
This is one part, drawn at random, of about 17,000 deposited reagents. Of all reagents, 762 (4.5%) were called active. 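Active calls include both raised and lowered p65 entry, mostly lowered; wells with fewer than 50 cells lack a z-score.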 The raw values are shown without normalisation. The numbers tell different reagents against one gene apart.

gene knocked down	reagent no.	p65 translocation robust z-score	nuclear/cytoplasmic p65 ratio, rep 1	nuclear/cytoplasmic p65 ratio, rep 2	low cell count flag	outcome
Tle1 (GeneID 21885)	1	-0.21	1.44	1.54	enough cells to score	inactive
Plcb3 (GeneID 18797)	1	0.49	1.53	1.5	enough cells to score	inactive
Cyp3a11 (GeneID 13112)	1	0.31	1.56	1.91	enough cells to score	inactive
Iffo1 (GeneID 320678)	1	-0.36	1.35	1.46	enough cells to score	inactive
Sstr5 (GeneID 20609)	1	-0.74	1.46	1.42	enough cells to score	inactive
Mapk10 (GeneID 26414)	1	0.84	1.67	1.48	enough cells to score	inactive
Mapk10 (GeneID 26414)	2	0.69	1.65	1.5	enough cells to score	inactive
Zfp747 (GeneID 269997)	1	-1.68	1.22	1.29	enough cells to score	active
Efhb (GeneID 211482)	1	1.89	1.51	1.51	enough cells to score	inactive
Trim30d (GeneID 209387)	1	0.76	1.84	1.65	enough cells to score	inactive
Fbxw13 (GeneID 211305)	1	-0.27	1.45	1.31	enough cells to score	inactive
Noazfp (GeneID 30932)	1	-0.11	1.4	1.24	enough cells to score	inactive
Krtcap3 (GeneID 69815)	1	0.09	1.55	1.46	enough cells to score	inactive
Ccl17 (GeneID 20295)	1	0	1.53	1.59	enough cells to score	inactive
Mb (GeneID 17189)	1	1.33	1.84	1.81	enough cells to score	inactive
Nudt6 (GeneID 229228)	1	0.03	1.71	1.55	enough cells to score	inactive
Adamtsl5 (GeneID 66548)	1	-0.83	1.3	1.06	enough cells to score	inactive
Vps26a (GeneID 30930)	1	1.29	1.53	1.4	enough cells to score	inactive
Rpl12 (GeneID 269261)	1		1.37	1.23	fewer than 50 cells per well; well left out of scoring	inactive
Cul4a (GeneID 99375)	1	-0.04	1.51	1.34	enough cells to score	inactive
Hacd3 (GeneID 57874)	1		1.22	1.5	fewer than 50 cells per well; well left out of scoring	inactive
Shoc2 (GeneID 56392)	1		1.13	1.01	fewer than 50 cells per well; well left out of scoring	inactive
Clec4b1 (GeneID 69810)	1		1.56	1.5	fewer than 50 cells per well; well left out of scoring	inactive
Zbtb12 (GeneID 193736)	1	-0.58	1.48	1.76	enough cells to score	inactive
Il1rl2 (GeneID 107527)	1	-0.15	1.5	1.32	enough cells to score	inactive
2010106E10Rik (GeneID 67715)	1		1.76	1.56	fewer than 50 cells per well; well left out of scoring	inactive
Il22ra2 (GeneID 237310)	1	-0.34	1.41	1.35	enough cells to score	inactive
Amd2 (GeneID 100041585)	1	-1.44	1.36	1.49	enough cells to score	inactive
Akr1c14 (GeneID 105387)	1	-0.09	1.55	1.53	enough cells to score	inactive
Eif4b (GeneID 75705)	1	1.24	1.61	1.54	enough cells to score	inactive
Pkd2l2 (GeneID 53871)	1	0.99	1.56	1.61	enough cells to score	inactive
Ptpn7 (GeneID 320139)	1	0.25	1.71	1.59	enough cells to score	inactive
Rfpl4 (GeneID 192658)	1	0.65	1.5	1.3	enough cells to score	inactive

Targets above whose gene name starts with I or i:
gene knocked down	reagent no.	p65 translocation robust z-score	nuclear/cytoplasmic p65 ratio, rep 1	nuclear/cytoplasmic p65 ratio, rep 2	low cell count flag	outcome
Iffo1 (GeneID 320678)	1	-0.36	1.35	1.46	enough cells to score	inactive
Il1rl2 (GeneID 107527)	1	-0.15	1.5	1.32	enough cells to score	inactive
Il22ra2 (GeneID 237310)	1	-0.34	1.41	1.35	enough cells to score	inactive

Continued:
gene knocked down	reagent no.	p65 translocation robust z-score	nuclear/cytoplasmic p65 ratio, rep 1	nuclear/cytoplasmic p65 ratio, rep 2	low cell count flag	outcome
Tmco6 (GeneID 71983)	1		1.26	1.01	fewer than 50 cells per well; well left out of scoring	inactive
Scgb2b2 (GeneID 381970)	1	0.15	1.57	1.76	enough cells to score	inactive
Il23r (GeneID 209590)	1	0.64	1.65	1.38	enough cells to score	inactive
Siah2 (GeneID 20439)	1	-0.62	1.47	1.46	enough cells to score	inactive
Bend6 (GeneID 320705)	1	-2.11	1.22	1.28	enough cells to score	active
Plec (GeneID 18810)	1	-0.05	1.5	1.39	enough cells to score	inactive
Trem1 (GeneID 58217)	1	-0.23	1.48	1.47	enough cells to score	inactive
Gk2 (GeneID 14626)	1		1.79	1.53	fewer than 50 cells per well; well left out of scoring	inactive
Usp50 (GeneID 75083)	1	-0.11	1.22	1.33	enough cells to score	inactive
Or4f4b (GeneID 258399)	1	-0.08	1.67	1.35	enough cells to score	inactive
Pcgf3 (GeneID 69587)	1		1.5	1.4	fewer than 50 cells per well; well left out of scoring	inactive
Pramel37 (GeneID 381724)	1		1.25	1.24	fewer than 50 cells per well; well left out of scoring	inactive
Pcgf1 (GeneID 69837)	1	0.41	1.49	1.48	enough cells to score	inactive
Mepce (GeneID 231803)	1	-0.74	1.41	1.49	enough cells to score	inactive
Rac3 (GeneID 170758)	1	0.94	1.71	1.59	enough cells to score	inactive
Pom121 (GeneID 107939)	1	-0.59	1.28	1.17	enough cells to score	inactive
Arhgef9 (GeneID 236915)	1	-0.33	1.58	1.55	enough cells to score	inactive
Acot4 (GeneID 171282)	1		1.58	1.23	fewer than 50 cells per well; well left out of scoring	inactive
Rpl7l1 (GeneID 66229)	1	0.76	1.59	1.6	enough cells to score	inactive
1810043J12RIK	1		1.73	1.14	fewer than 50 cells per well; well left out of scoring	inactive
Me1 (GeneID 17436)	1	1.31	1.64	1.49	enough cells to score	inactive
Podxl (GeneID 27205)	1		1.57	1.51	fewer than 50 cells per well; well left out of scoring	inactive
Trib1 (GeneID 211770)	1		2.3	1.71	fewer than 50 cells per well; well left out of scoring	inactive
Tapbp (GeneID 21356)	1	-0.12	1.4	1.6	enough cells to score	inactive
Scg2 (GeneID 20254)	1	1.18	1.54	1.82	enough cells to score	inactive
Usp15 (GeneID 14479)	1	-0.16	1.58	1.4	enough cells to score	inactive
